Measured values taken from patent publication US20220098289A1.
These are yes or no findings as the source states them, for the method shown. In cells and extracts the contact can be indirect. Some binding calls cover weakened binding; strength is not graded here.

Key:
[1] = biological target: transgenic human APP (human) (UniProt P05067); experiment: co-immunoprecipitation from the synaptosomal fraction, Western blot
[2] = biological target: transgenic human APP (human) (UniProt P05067); experiment: co-immunoprecipitation from the synaptosomal fraction, Western blot (FIG. 5U)

B1: mouse Sfrp1 (protein, UniProt Q8C4U3 32-314, looked up)
chain: SEYDYVSFQSDIGSYQSGRFYTKPPQCVDIPVDLRLCHNVGYKKMVLPNLLEHETMAEVKQQASSWVPLLNKNCHMGTQVFLCSLFAPVCLDRPIYPCRWLCEAVRDSCEPVMQFFGFYWPEMLKCDKFPEGDVCIAMTPPNTTEASKPQGTTVCPPCDNELKSEAIIEHLCASEFALRMKIKEVKKENGDKKIVPKKKKPLKLGPIKKKELKRLVLFLKNGADCPCHQLDNLSHNFLIMGRKVKSQYLLTAIHKWDKKNKEFKNFMKRMKNHECPTFQSVFK
binding [1]: binds
binding [2]: binds
